Laboratory results reported in article PMC6698656.

Amino acid sequences for entries named in this document (tags omitted). Residues count along the entry.
UniProt Q8WVM0, 28-346 P143A/F144A/S145A: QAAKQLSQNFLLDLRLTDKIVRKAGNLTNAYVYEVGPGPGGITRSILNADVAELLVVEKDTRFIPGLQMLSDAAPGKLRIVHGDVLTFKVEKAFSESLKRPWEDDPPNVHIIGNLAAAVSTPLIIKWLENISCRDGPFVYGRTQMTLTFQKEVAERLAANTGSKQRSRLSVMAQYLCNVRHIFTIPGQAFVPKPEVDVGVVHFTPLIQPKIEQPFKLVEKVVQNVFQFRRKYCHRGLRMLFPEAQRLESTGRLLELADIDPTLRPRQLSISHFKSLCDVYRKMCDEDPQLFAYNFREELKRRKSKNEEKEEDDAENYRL
UniProt Q8WVM0, 28-346: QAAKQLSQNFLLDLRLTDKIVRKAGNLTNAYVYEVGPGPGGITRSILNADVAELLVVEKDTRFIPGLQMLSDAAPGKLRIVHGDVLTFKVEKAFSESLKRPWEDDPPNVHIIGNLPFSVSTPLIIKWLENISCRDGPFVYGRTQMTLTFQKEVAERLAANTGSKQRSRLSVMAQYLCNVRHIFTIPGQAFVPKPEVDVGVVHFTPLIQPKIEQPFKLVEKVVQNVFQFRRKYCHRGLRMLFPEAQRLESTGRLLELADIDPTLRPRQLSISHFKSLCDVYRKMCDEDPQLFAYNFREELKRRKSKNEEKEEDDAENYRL
UniProt Q8WVM0, 28-346 R183E/R256E/R257E: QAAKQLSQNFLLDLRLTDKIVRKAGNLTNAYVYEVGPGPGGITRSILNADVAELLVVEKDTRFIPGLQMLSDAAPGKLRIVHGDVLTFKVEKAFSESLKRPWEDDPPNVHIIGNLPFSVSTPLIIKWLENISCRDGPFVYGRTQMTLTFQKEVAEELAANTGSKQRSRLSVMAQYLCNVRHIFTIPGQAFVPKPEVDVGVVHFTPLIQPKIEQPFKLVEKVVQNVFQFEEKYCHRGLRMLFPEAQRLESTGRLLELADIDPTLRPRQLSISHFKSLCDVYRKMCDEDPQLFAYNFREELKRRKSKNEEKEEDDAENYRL

Tests used:
Experiment in all cases: EMSA
[1] = molecular target: hsTFB1M P143A/F144A/S145A (Homo sapiens) (UniProt Q8WVM0); conditions: not significantly impaired, only R183E/R256E/R257E was; EMSA: 50 mM Tris-HCl pH 8.0, 25 mM NaCl, 100 nM RNA, 37 C 30 min; 6% native PAGE, 0.5x TBE; recombinant protein; residues 28-346; protein details: His6-MBP N-terminal, removed by TEV; label: 5'-FAM
hsTFB1M (Homo sapiens) = hsTFB1M (Homo sapiens) (UniProt Q8WVM0); conditions: apparent Kd only in figure; EMSA: 50 mM Tris-HCl pH 8.0, 25 mM NaCl, 100 nM RNA, 37 C 30 min; 6% native PAGE, 0.5x TBE; recombinant protein; residues 28-346; protein details: His6-MBP N-terminal, removed by TEV; label: 5'-FAM
[2] = molecular target: hsTFB1M R183E/R256E/R257E (Homo sapiens) (UniProt Q8WVM0); conditions: apparent Kd far greater than 2 uM; EMSA: 50 mM Tris-HCl pH 8.0, 25 mM NaCl, 100 nM RNA, 37 C 30 min; 6% native PAGE, 0.5x TBE; recombinant protein; residues 28-346; protein details: His6-MBP N-terminal, removed by TEV; label: 5'-FAM

GGUAAGUGUACUGGAAAGUGCACUUGCC [5'-FAM h45 RNA (WT)]
binding result [1]: binds | binding result (hsTFB1M (Homo sapiens)): binds | Kd [2]: > 2000 nM

For part of these data: Construct, isoform or probe ends are uncertain for at least one entry. For part of these data: At least one verdict rests on a figure or table, not on a statement of the authors.
